Data from article PMC5426757.
No constants are given. Whether binding was seen depends on the method and setting. Binding seen in cells or lysates may run through a third protein. Some entries that bind do so weakly or less than the wild type.

Protein sequences, listed by entry. Tags and fused reporters are not part of them. Residues count along the entry.
UniProt P03372: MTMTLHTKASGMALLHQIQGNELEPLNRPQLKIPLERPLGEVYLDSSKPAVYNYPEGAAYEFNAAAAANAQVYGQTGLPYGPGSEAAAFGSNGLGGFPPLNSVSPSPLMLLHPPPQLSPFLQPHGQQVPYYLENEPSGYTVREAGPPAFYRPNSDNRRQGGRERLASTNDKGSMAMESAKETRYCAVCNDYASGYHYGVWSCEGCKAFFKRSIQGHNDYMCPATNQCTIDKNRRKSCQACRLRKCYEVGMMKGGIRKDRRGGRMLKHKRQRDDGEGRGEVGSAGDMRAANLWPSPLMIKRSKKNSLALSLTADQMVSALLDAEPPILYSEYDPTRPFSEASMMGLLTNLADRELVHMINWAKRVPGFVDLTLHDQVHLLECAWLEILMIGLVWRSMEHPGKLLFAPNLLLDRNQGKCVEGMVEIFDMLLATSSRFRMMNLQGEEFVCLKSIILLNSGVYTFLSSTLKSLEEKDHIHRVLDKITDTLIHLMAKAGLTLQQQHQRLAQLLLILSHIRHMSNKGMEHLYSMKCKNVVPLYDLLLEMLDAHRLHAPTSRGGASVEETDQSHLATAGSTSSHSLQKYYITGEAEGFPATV
UniProt P21860, residues 20-1342: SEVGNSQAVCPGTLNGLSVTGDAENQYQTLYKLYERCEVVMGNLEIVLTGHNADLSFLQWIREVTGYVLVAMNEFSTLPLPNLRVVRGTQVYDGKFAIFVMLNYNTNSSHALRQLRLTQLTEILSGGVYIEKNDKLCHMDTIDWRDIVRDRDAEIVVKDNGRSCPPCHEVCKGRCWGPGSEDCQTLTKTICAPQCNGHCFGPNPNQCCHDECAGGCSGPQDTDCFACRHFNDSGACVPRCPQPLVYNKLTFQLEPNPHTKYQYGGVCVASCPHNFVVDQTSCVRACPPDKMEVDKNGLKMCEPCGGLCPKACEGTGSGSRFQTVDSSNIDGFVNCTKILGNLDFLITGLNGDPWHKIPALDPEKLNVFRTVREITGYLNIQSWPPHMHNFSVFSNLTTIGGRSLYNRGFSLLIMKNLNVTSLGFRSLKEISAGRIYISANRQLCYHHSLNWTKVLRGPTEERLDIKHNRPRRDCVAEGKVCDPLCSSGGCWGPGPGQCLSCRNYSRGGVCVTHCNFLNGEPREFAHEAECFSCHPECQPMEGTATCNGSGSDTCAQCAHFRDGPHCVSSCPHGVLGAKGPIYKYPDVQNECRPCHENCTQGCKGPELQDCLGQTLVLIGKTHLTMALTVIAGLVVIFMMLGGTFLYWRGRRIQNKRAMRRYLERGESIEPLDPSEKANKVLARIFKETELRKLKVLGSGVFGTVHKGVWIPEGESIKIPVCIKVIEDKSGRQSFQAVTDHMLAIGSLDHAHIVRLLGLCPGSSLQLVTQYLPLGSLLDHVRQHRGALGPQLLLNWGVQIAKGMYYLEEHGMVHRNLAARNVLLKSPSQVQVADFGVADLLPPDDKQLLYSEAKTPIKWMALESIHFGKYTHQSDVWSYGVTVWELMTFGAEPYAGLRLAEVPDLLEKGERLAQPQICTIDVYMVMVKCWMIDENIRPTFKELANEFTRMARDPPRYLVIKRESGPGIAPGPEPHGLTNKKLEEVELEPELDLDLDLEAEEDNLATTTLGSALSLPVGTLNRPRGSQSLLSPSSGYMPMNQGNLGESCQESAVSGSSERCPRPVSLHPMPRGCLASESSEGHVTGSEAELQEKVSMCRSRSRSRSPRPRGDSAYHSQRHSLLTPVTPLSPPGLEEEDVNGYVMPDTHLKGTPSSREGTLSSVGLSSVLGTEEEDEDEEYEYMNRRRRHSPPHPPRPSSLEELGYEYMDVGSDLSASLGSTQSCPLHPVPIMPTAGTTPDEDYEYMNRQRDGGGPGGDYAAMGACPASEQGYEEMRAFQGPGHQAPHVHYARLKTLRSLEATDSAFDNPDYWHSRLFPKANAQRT

What was measured:
Experiment in all cases: co-IP; lysates (Triton X100 lysis buffer) of HEK 293 cells transfected with HER2, HER3 and ERα alone or together, starved 48 h in 0.5% FCS, no estrogen, with or without HRG (5 ng/mL, 10 min); immunoprecipitated with anti-HER2 (trastuzumab), anti-HER3 (Roche Ab208) or anti-ERα (Cell Signaling 8644), Western blot for the partner
[1] = biological target: estrogen receptor alpha (ERα) (human) (UniProt P03372)
[2] = biological target: human epidermal growth factor receptor 2 (HER2) (human) (UniProt P04626)
[3] = biological target: human epidermal growth factor receptor 3 (HER3) (human) (UniProt P21860)

| binding [1] | binding [2] | binding [3] | Substance |
| --- | --- | --- | --- |
| binds | – | – | human epidermal growth factor receptor 3 (HER3) (from UniProt P21860 20-1342) |
| – | binds | binds | estrogen receptor alpha (ERα) (from UniProt P03372 1-595) |
| binds | – | – | human epidermal growth factor receptor 2 (HER2) (from UniProt P04626 23-1255) |
